Test results from patent US20150132277A1.
Numbering of substitutions follows the chain as printed. Names and notes keep the numbering of the source. No constants are given. Whether binding was seen depends on the method and setting. For part of these data: Binding seen in cells or lysates may run through a third protein. Some binding calls cover weakened binding; strength is not graded here. For part of these data: Tags and fused reporters may be left off the sequences shown. Blank lines part the entries; values can stand above or below the binder they belong to.

Sequences of proteins named here, by UniProt entry; tags and fusion partners are left off.
UniProt P25025: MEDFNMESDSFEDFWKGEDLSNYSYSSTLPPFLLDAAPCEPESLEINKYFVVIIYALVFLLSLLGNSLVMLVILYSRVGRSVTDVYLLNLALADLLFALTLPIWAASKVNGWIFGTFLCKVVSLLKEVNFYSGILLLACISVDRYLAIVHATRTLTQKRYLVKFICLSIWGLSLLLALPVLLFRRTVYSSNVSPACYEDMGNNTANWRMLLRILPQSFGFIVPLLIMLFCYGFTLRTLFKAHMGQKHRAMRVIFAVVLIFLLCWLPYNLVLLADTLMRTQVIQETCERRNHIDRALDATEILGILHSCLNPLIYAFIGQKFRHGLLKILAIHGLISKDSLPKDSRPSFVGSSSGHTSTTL

Columns and labels:
[1] = biological target: T1, CXCR-1 on stably expressing HEK 293 cells (UniProt P25024); assay: receptor binding assay on CXCR-1 expressing HEK 293 cells
T1 sequence (looked up): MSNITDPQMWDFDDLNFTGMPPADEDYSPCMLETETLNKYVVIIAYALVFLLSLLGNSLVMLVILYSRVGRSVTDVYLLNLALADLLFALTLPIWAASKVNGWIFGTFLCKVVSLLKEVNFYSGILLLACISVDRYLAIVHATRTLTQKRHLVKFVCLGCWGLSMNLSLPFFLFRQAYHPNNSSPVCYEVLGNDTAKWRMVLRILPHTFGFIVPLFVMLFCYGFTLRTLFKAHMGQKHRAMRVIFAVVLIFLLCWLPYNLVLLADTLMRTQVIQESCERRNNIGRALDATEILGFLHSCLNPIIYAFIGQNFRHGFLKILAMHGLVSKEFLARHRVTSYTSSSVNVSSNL

[2] = biological target: CXCR-2 on stably expressing HEK 293 cells (UniProt P25025); assay: His6-tagged protein on CXCR-2 expressing HEK 293 cells, anti-His6 immunoblot of lysates
[3] = biological target: CXCR-2 on stably expressing HEK 293 cells (UniProt P25025); assay: His6-tagged protein incubated with cells, washed, lysed, anti-His6 immunoblot with actin as loading control
[4] = biological target: T1, CXCR-1 on stably expressing HEK 293 cells; assay: as above
[5] = biological target: CXCR-2 on stably expressing HEK 293 cells (UniProt P25025); assay: receptor binding assay on CXCR-2 expressing HEK 293 cells
[6] = biological target: T1, CXCR-1 on stably expressing HEK 293 cells; assay: His6-tagged protein on CXCR-1 expressing HEK 293 cells, anti-His6 immunoblot of lysates
[7] = biological target: T1, CXCR-1 on stably expressing HEK 293 cells; assay: binding of fixed WT mini-YRS to CXCR1-293 cells with 0-100 µg/ml C130^ox, immunoblot of cell lysates
[8] = biological target: CXCR-2 on stably expressing HEK 293 cells (UniProt P25025); assay: binding of fixed WT mini-YRS to CXCR2-293 cells with 0-100 µg/ml C130^ox, immunoblot of cell lysates
[9] = biological target: T1, CXCR-1 on stably expressing HEK 293 cells; assay: competitive binding on CXCR-1 expressing HEK 293 cells; competitor WT mini-YRS at fixed concentration
[10] = biological target: T1, CXCR-1 on stably expressing HEK 293 cells; assay: competitive binding on CXCR1-293 cells: fixed WT mini-YRS (competitor) with rising C130^ox, immunoblot of cell lysates
[11] = biological target: CXCR-2 on stably expressing HEK 293 cells (UniProt P25025); assay: competitive binding on CXCR2-293 cells: fixed WT mini-YRS (competitor) with rising C130^ox, immunoblot of cell lysates
[12] = biological target: CXCR-2 on stably expressing HEK 293 cells (UniProt P25025); assay: competitive binding on CXCR-2 expressing HEK 293 cells; competitor WT mini-YRS at fixed concentration
[13] = biological target: T2, biotinylated VE-EC1 (VE-EC1 with a C-terminal cysteine coupled to Maleimide-PEG2-Biotin) (Homo sapiens (Human)) (UniProt P33151); assay: pull-down on Strep-Tactin beads with VE-EC1-biotin as bait, anti-6xHis Western blot
T2 sequence (chain, C-terminal Cys biotinylated with Maleimide-PEG2-Biotin): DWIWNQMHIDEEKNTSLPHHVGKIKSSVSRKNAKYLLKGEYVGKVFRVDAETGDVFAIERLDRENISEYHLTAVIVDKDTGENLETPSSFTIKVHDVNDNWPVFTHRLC

[14] = biological target: T2, biotinylated VE-EC1 (VE-EC1 with a C-terminal cysteine coupled to Maleimide-PEG2-Biotin) (Homo sapiens (Human)); assay: pull-down with VE-EC1-biotin on Strep-Tactin beads, 100 nM protein, anti-6xHis Western blot; T2-WRS is the weaker reference

B3: C130^OX non-dissociating disulfide-linked dimer of T130C mini-YRS (enzyme)
chain: MGDAPSPEEKLHLITRNLQEVLGEEKLKEILKERELKIYWGTATTGKPHVAYFVPMSKIADFLKAGCEVTILFADLHAYLDNMKAPWELLELRVSYYENVIKAMLESIGVPLEKLKFIKGTDYQLSKEYCLDVYRLSSVVTQHDSKKAGAEVVKQVEHPLLSGLLYPGLQALDEEYLKVDAQFGGIDQRKIFTFAEKYLPALGYSKRVHLMNPMVPGLTGSKMSSSEEESKIDLLDRKEDVKKKLKKAFCEPGNVENNGVLSFIKHVLFPLKSEFVILRDEKWGGNKTYTAYVDLEKDFAAEVVHPGDLKNSVEVALNKLLDPIREKFNTPALKKLASAAYPDPSKQKPMAKGPAKNSEPEEVI
modifications: Cys 130 of the two subunits joined by a disulfide bond after I2 oxidation
binding [9]: binds | binding [10]: binds | binding [11]: binds | binding [12]: binds

B4: human T2-WRS (residues 94-471 of full-length tryptophanyl-tRNA synthetase) with C-terminal His6 tag (enzyme)
chain: SAKGIDYDKLIVRFGSSKIDKELINRIERATGQRPHHFLRRGIFFSHRDMNQVLDAYENKKPFYLYTGRGPSSEAMHVGHLIPFIFTKWLQDVFNVPLVIQMTDDEKYLWKDLTLDQAYSYAVENAKDIIACGFDINKTFIFSDLDYMGMSSGFYKNVVKIQKHVTFNQVKGIFGFTDSDCIGKISFPAIQAAPSFSNSFPQIFRDRTDIQCLIPCAIDQDPYFRMTRDVAPRIGYPKPALLHSTFFPALQGAQTKMSASDPNSSIFLTDTAKQIKTKVNKHAFSGGRDTIEEHRQFGGNCDVDVSFMYLTFFLEDDDKLEQIRKDYTSGAMLTGELKKALIEVLQPLIAEHQARRKEVTDEIVKEFMTPRKLSFDFQHHHHHH
binding [13]: binds | binding [14]: binds

The remaining lines, values ahead:

binding [1]: binds | binding [2]: binds | binding [3]: binds | binding [4]: binds | binding [5]: binds | binding [6]: binds
B1: non-associating monomeric Δ159-161 variant of mini-YRS (enzyme)
chain: MGDAPSPEEKLHLITRNLQEVLGEEKLKEILKERELKIYWGTATTGKPHVAYFVPMSKIADFLKAGCEVTILFADLHAYLDNMKAPWELLELRVSYYENVIKAMLESIGVPLEKLKFIKGTDYQLSKEYTLDVYRLSSVVTQHDSKKAGAEVVKQVEHSGLLYPGLQALDEEYLKVDAQFGGIDQRKIFTFAEKYLPALGYSKRVHLMNPMVPGLTGSKMSSSEEESKIDLLDRKEDVKKKLKKAFCEPGNVENNGVLSFIKHVLFPLKSEFVILRDEKWGGNKTYTAYVDLEKDFAAEVVHPGDLKNSVEVALNKLLDPIREKFNTPALKKLASAAYPDPSKQKPMAKGPAKNSEPEEVI

binding [2]: binds | binding [7]: binds | binding [3]: binds | binding [4]: binds | binding [6]: binds | binding [8]: binds
B2: wild-type (WT) human mini-YRS (N-terminal fragment of human tyrosyl-tRNA synthetase) (enzyme)
chain: B3 chain with C130T
